Results published in PubChem BioAssay AID1347075 (National Center for Advancing Translational Sciences (NCATS), 2019).
Among all 400,000 compounds or so, about 5,500 (1.4%) were called active. Inconclusive results, whose numbers are uncertain, are shown with a selection of clear calls. The call rests on the fitted dose curve; in most records, active means well fitted cell-killing curve with a large enough effect; inconclusive means small, poorly fitted or top-dose-only effect, or effect the other way; inactive means flat fitted curve, though single readings scatter. A potency beside an inconclusive call is a rough fit, not a confirmed value.

Assay: qHTS assay for MDR1-selective chemotherapeutics: Primary screen using the parental adenocarcinoma cell KB-3-1; further: nearly all actives have a fitted effect of over 60% in size
Details: KB-3-1 viability, CellTiter-Glo ATP luminescence, 72 h; series mostly up to 46.1 µM
Summary of the method: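 Parental KB-3-1 adenocarcinoma cells in phenol-red-free DMEM with 10% FBS were pin-treated with compounds at several concentrations, incubated 72 h at 37 °C, and viability read by CellTiter-Glo luminescence; concentration-effect curves were fitted after normalization.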
Potency means the concentration at half of the fitted maximal effect.

Structure (SMILES)	Potency
O=C(c1cc(C2CC2)nc2ccc(Br)cc12)N1N=C(C(F)F)CC1(O)C(F)F (stereo not drawn)	inconclusive: 32.6 µM [cytotoxic, partial curve, poor fit]
CCC1C(=O)NCCN1C(=O)c1ccc(OC)c(OC2CCN(C(C)=O)CC2)c1 (stereo not drawn)	inactive
O=C(NC(c1ccc(-c2ccccc2)cc1)c1cnccn1)C1CCN(CCOc2ccc(Cl)cc2Cl)CC1 (stereo not drawn)	inconclusive: 29.1 µM [cytotoxic, single point]
CC(C)(C)C1=CC(O)(c2ccccc2)C=C(C(C)(C)C)C1=O	inactive
NC(=S)N=Nc1c(O)[nH]c2c(Cl)cc(Cl)cc12	inactive
CCSC1=NSC2=NC(=O)/C(=C\c3coc4ccccc4c3=O)C(=N)N12	inactive
COc1cccc(C(=O)Oc2ccccc2/C=C\C(=O)c2cc3ccccc3o2)c1	inconclusive: 13 µM [cytotoxic, partial curve, poor fit]
CCc1ccc(CNCc2ccc(OCC(O)CN(C)Cc3ccccc3)cc2)nc1 (stereo not drawn)	inconclusive: 29.1 µM [cytotoxic, single point]
COCCN1C(=O)C(=O)/C(=C(/O)c2ccc(S(=O)(=O)N3CCOCC3)cc2)C1c1cccc([N+](=O)[O-])c1 (stereo not drawn)	inactive
O=c1c2ccccc2nc2n1C(CSCc1ccc(Cl)cc1Cl)CS2 (stereo not drawn)	inconclusive: 6.51 µM [cytotoxic, partial curve]
Cc1cc(C)nc(NC(=NCCc2c[nH]c3ccccc23)NC(=O)Nc2cccc([N+](=O)[O-])c2)n1	inactive
O=C(C1CCN(S(=O)(=O)N2CCOCC2)CC1)N1CCN(c2ccc(F)cc2)CC1	inactive
OCC1OC(n2cnc3c(NCCc4ccccc4)ncnc32)C(O)C1O (stereo not drawn)	inactive
O=C(N/N=C/c1cc(Cl)cc([N+](=O)[O-])c1O)c1cc(-c2ccccn2)nc2ccccc12	inconclusive: 18.4 µM [cytotoxic, partial curve]
COc1ccc(C(=O)Oc2ccc(Br)cc2C(=S)N2CCOCC2)cc1	inconclusive: 29.1 µM [cytotoxic, single point]
C/C(=C\c1ccc(C(=O)O)cc1)c1ccc2c(c1)C(C)(C)CCC2(C)C	inactive
CC1CN(C(=O)CSc2nnc(-c3ccccc3)o2)CC(C)O1 (stereo not drawn)	inconclusive: 29.1 µM [rising, single point]
COc1ccc(C(=O)NC(=S)Nc2cccc(S(=O)(=O)N3CCOCC3)c2)cc1	active: 5.8 µM
Cc1cc(NC(=O)CSc2nc(C(C)C)nc3sc4c(c23)CCC(C)C4)no1 (stereo not drawn)	inconclusive: 18.4 µM [cytotoxic, single point]
COCc1ccc(CN2CCC(C(=O)Nc3cccc(-c4cccc(Cl)c4)c3)CC2)o1	inconclusive: 29.1 µM [cytotoxic, single point]
CCc1c(C(=O)Nc2ncn(Cc3cccc(C)c3)n2)csc1C	inactive
O=C(Nc1ccc(Cl)cc1)c1nc[nH]c1C(=O)NCc1ccccc1	inconclusive: 29.1 µM [cytotoxic, single point]
O=C(CCNS(=O)(=O)c1ccccc1Cl)N1CCN(c2ccccn2)CC1	inconclusive: 20.6 µM [rising, single point]

Copied from the list:
Potency with `Cc1cc(C)nc(NC(=NCCc2c[nH]c3ccccc23)NC(=O)Nc2cccc([N+](=O)[O-])c2)n1` is entered as inactive
Potency with `COCCN1C(=O)C(=O)/C(=C(/O)c2ccc(S(=O)(=O)N3CCOCC3)cc2)C1c1cccc([N+](=O)[O-])c1` (stereo not drawn) is entered as inactive
Potency with `C/C(=C\c1ccc(C(=O)O)cc1)c1ccc2c(c1)C(C)(C)CCC2(C)C` is entered as inactive
Potency with `O=C(N/N=C/c1cc(Cl)cc([N+](=O)[O-])c1O)c1cc(-c2ccccn2)nc2ccccc12` is entered as inconclusive: 18.4 µM [cytotoxic, partial curve]
Potency with `O=C(NC(c1ccc(-c2ccccc2)cc1)c1cnccn1)C1CCN(CCOc2ccc(Cl)cc2Cl)CC1` (stereo not drawn) is entered as inconclusive: 29.1 µM [cytotoxic, single point]

Additional results:

Structure (SMILES)	Potency
CC(OC(=O)/C=C/c1ccccc1)C(=O)Nc1cccc(C#N)c1 (stereo not drawn)	inconclusive: 29.1 µM [cytotoxic, single point]
Cc1nc(-c2ccccn2)sc1C(=O)Nc1ccc(F)cc1	inconclusive: 0.206 µM [rising, partial curve, poor fit]
COc1ccc(CC(=O)Nc2ccc(S(=O)(=O)Nc3cc(C)nc(C)n3)cc2)cc1OC	inactive
COc1ccccc1CN(C)C(=O)c1cc(C)nc2ccccc12	inconclusive: 29.1 µM [cytotoxic, single point]
COc1ccc(NC(=O)C(=O)N/N=C\c2ccc(CNC(=O)C(=O)Nc3ccc(C)c(C)c3)o2)c(OC)c1	active: 13 µM
CCN(C(=S)Nc1ccc(OC(F)F)cc1)C1CCCCC1	inconclusive: 14.6 µM [cytotoxic, partial curve]
CCN(C(=S)NCc1ccccc1)c1ccccc1	inactive
CCCCCn1c(CCCNC(=O)c2cccc(C)c2)nc2ccccc21	inactive
N#Cc1ccc(-c2cccs2)nc1SCc1cccnc1	inconclusive: 0.517 µM [cytotoxic, full curve]
CCN(CC)c1cc(C)c2cc(NC(=O)c3ccccc3F)ccc2n1	inconclusive: 29.1 µM [cytotoxic, single point]
COc1cc2c(NC3CCN(C)CC3)nc(N3CCCN(C)CC3)nc2cc1OCCCN1CCOCC1	inconclusive: 14.6 µM [cytotoxic, partial curve, poor fit]
Cc1oc(-c2ccc(Cl)cc2)nc1CN1CCC(C(=O)NCCCN2CCCC(C)C2)CC1 (stereo not drawn)	inconclusive: 29.1 µM [cytotoxic, single point]
CCOC(=O)C1(CCOC)CCN(C/C=C/c2ccccc2OC)CC1	inconclusive: 16.4 µM [cytotoxic, single point]
CCn1c(C)c(C)c2cc(C(=O)Nc3cccc(Cl)c3)ccc21	inconclusive: 29.1 µM [cytotoxic, single point]
CCN1CCN(c2ccc(S(=O)(=O)N3CCCCC3)cc2NC(=O)Cc2ccc(Cl)c(Cl)c2)CC1	inconclusive: 20.6 µM [cytotoxic, partial curve, poor fit]
O=C(COC(=O)c1ccc2c(c1)OCCO2)NCc1ccccc1	inconclusive: 29.1 µM [cytotoxic, single point]
CNC(=O)/C=C/c1cc(C(=O)c2ccc(Cl)cc2Cl)cn1C	inconclusive: 29.1 µM [cytotoxic, single point]
CC(NC(=O)COc1ccc(-c2nnco2)cc1)c1ccc(Cl)cc1Cl (stereo not drawn)	inconclusive: 16.4 µM [cytotoxic, partial curve]
CC(C)CC(=O)C1CCCN(C(=O)c2ccc3oc(Cc4ccccc4)nc3c2)C1 (stereo not drawn)	inconclusive: 29.1 µM [cytotoxic, single point]
O=C(c1cc2ccccc2o1)N1CCN(Cc2nc3ccccc3s2)CC1	inactive
CCOC(=O)CSC1=C(C#N)C(c2ccc(C)s2)CC(=O)N1 (stereo not drawn)	active: 5.17 µM
COc1cccc(C2Cc3ccccc3C(=O)O2)c1 (stereo not drawn)	inconclusive: 29.1 µM [rising, single point]
Cc1cccc(N(CC(=O)N=Nc2c(O)[nH]c3ccccc23)S(C)(=O)=O)c1C	inconclusive: 9.2 µM [rising, partial curve]

Structure (SMILES)	Potency
CCN(CC)c1ccc(/C=C/c2c(C)cnc3ccccc23)cc1	inconclusive: 23.1 µM [cytotoxic, single point]
Cn1c(NCc2ccccc2F)nc2cc(-c3ccsc3)sc2c1=O	inconclusive: 29.1 µM [cytotoxic, single point]
O=C(CSc1ccc(Cl)cc1)N1CCN(c2ccc([N+](=O)[O-])cc2Cl)CC1	inconclusive: 29.1 µM [cytotoxic, single point]
Cc1ccc(NC(=O)Cn2c(=O)ccn(Cc3ccccc3)c2=O)cc1S(=O)(=O)N1CCOCC1	inactive
Cc1ccc(NC(=O)c2cc(S(=O)(=O)NCCC3=CCCCC3)ccc2F)cc1C	active: 16.4 µM
CCc1ccccc1NC(=O)CN(c1ccc(OC)cc1)S(=O)(=O)c1c(C)n[nH]c1C	inconclusive: 20.6 µM [cytotoxic, single point]
CSc1cccc(NS(=O)(=O)c2ccc(C(C)=O)cc2)c1	inconclusive: 0.651 µM [cytotoxic, partial curve, poor fit]
CCOC(=O)Cc1csc(NC(=O)c2sc3nc4ccc(CC)cc4cc3c2N)n1	inconclusive: 18.4 µM [rising, single point]
COc1ccc(Nc2sc(C(=O)c3ccccc3)c(N)c2C(=O)Nc2cc(C)ccc2C)c(OC)c1	inconclusive: 32.6 µM [cytotoxic, single point]
C=CCn1c(SCC(=O)Nc2sccc2C(N)=O)nc2ccccc2c1=O	inconclusive: 25.9 µM [cytotoxic, partial curve, poor fit]
COC(=O)c1cccc(NC(=S)NCCC2=CCCCC2)c1	inconclusive: 29.1 µM [cytotoxic, single point]
Cc1ccccc1C1N=C2Oc3ccccc3C=C2C(=O)N1 (stereo not drawn)	active: 7.31 µM
CC(C)(C)c1ccccc1NC(=O)c1ccc(-n2cncn2)c([N+](=O)[O-])c1	inactive
COCCNC(=O)C1(C)CCCN(CCS(=O)(=O)c2ccc(C)cc2)C1 (stereo not drawn)	inactive
CN(C)CCCNc1cc(O)c2ncccc2c1	inconclusive: 2.91 µM [cytotoxic, full curve]
CCOC(=O)c1c(NC(=O)/C=C/c2ccc(OCC)c(OC)c2)sc2c1CCC2	inactive
Cc1ccccc1NC(=O)CSc1n[nH]c(-c2ccccn2)n1	inconclusive: 18.4 µM [cytotoxic, single point]
CC(=O)C[C@H]1c2cc(C(F)(F)F)ccc2S(=O)(=O)N1c1ccccc1	inconclusive: 25.9 µM [cytotoxic, single point]
CCOC(=O)CSc1nc2ccc(S(=O)(=O)N3CCOCC3)cc2[nH]1	inactive
COCOCCn1cc(CN2CCS(=O)(=O)N(Cc3ccc(-c4ccc(C)cc4)cc3)C(CC(C)C)C2=O)nn1 (stereo not drawn)	inconclusive: 29.1 µM [cytotoxic, partial curve, poor fit]
Cc1ccc(-c2nc(COC(=O)c3c(C)noc3C)cs2)cc1	inconclusive: 18.4 µM [cytotoxic, single point]
COc1ccc(C(=O)OCC(=O)N2CCc3ccccc32)cc1S(=O)(=O)N1CCOCC1	inconclusive: 20.6 µM [rising, partial curve, poor fit]
